PubChem BioAssay AID1259254 – NCATS | 2017
Purpose: 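Finding genes that stop cells copying their DNA twice in one cycle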 (primary screen). Cell system: human HCT116 colorectal cancer cells. Knock-down reagent: single siRNA against human genes. Timing: 3 days. Detection: 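Imaged Hoechst DNA stain sorts each cell into a cycle phase by DNA amount; per plate, G2 fraction set to 0% for non-targeting and 100% for GMNN siRNA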. Reading the numbers: G2 robust z-score and G2 cells, % of GMNN control: higher = more G2 cells, more excess DNA replication. Rule for the call: 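Active siRNAs have a G2 robust z of 5 or more median absolute deviations over the median, which in these data means about 38% or higher of GMNN control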.
In all, the deposit lists about 59,000 reagents; below is a random part of them. Of all reagents, about 1,550 (2.6%) were called active. 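G2 share is only a proxy for re-replication; each gene was hit by three separate siRNAs, and active genes were retested.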 Reagents against one gene are numbered here. Not all columns of the deposit are shown. Not stated in the record: the amount of reagent.

| gene knocked down | siRNA no. | G2 robust z-score | G2 cells, % of GMNN control | outcome |
| --- | --- | --- | --- | --- |
| SAGE1 | 1 | -0.801 | -2.67 | inactive |
| SAGE1 | 2 | 0.0651 | 3.43 | inactive |
| SAGE1 | 3 | 0.444 | 6.09 | inactive |
| GABRP | 1 | 2.78 | 22.5 | inactive |
| GABRP | 2 | -0.471 | -0.35 | inactive |
| GABRP | 3 | 0.0254 | 3.15 | inactive |
| CCDC78 | 1 | -0.155 | 1.88 | inactive |
| CCDC78 | 2 | -0.337 | 0.594 | inactive |
| CCDC78 | 3 | 4.97 | 37.9 | inactive |
| RBPMS | 1 | 4.58 | 35.2 | inactive |
| RBPMS | 2 | -0.753 | -2.33 | inactive |
| RBPMS | 3 | -1.28 | -6.03 | inactive |
| MIER2 | 1 | -0.397 | 0.175 | inactive |
| MIER2 | 2 | 1.73 | 15.1 | inactive |
| MIER2 | 3 | -0.373 | 0.343 | inactive |
| FBXO32 | 1 | 4.13 | 32 | inactive |
| FBXO32 | 2 | -0.366 | 0.393 | inactive |
| FBXO32 | 3 | 0.474 | 6.3 | inactive |
| H3P44 | 1 | -1.03 | -4.31 | inactive |
| H3P44 | 2 | 0.288 | 5 | inactive |
| H3P44 | 3 | -0.277 | 1.02 | inactive |
| RFC2 | 1 | 1.06 | 10.4 | inactive |
| RFC2 | 2 | -0.337 | 0.599 | inactive |
| RFC2 | 3 | -0.977 | -3.91 | inactive |
| AAAS | 1 | -0.928 | -3.57 | inactive |
| AAAS | 2 | 0.904 | 9.33 | inactive |
| AAAS | 3 | -0.056 | 2.57 | inactive |
| LINC00922 | 1 | -0.158 | 1.85 | inactive |
| LINC00922 | 2 | -0.709 | -2.02 | inactive |
| LINC00922 | 3 | 2.43 | 20 | inactive |
| MTMR12 | 1 | -0.0107 | 2.89 | inactive |
| MTMR12 | 2 | -1.15 | -5.12 | inactive |
| MTMR12 | 3 | 0.531 | 6.7 | inactive |
| TM9SF2 | 1 | -0.354 | 0.475 | inactive |
| TM9SF2 | 2 | -0.972 | -3.87 | inactive |
| TM9SF2 | 3 | 0.282 | 4.95 | inactive |
| PSCA | 1 | 3.77 | 29.5 | inactive |
| PSCA | 2 | -0.401 | 0.143 | inactive |
| PSCA | 3 | 2.59 | 21.2 | inactive |
| GDE1 | 1 | 1.65 | 14.6 | inactive |
| GDE1 | 2 | 2.5 | 20.6 | inactive |
| GDE1 | 3 | 2.36 | 19.6 | inactive |
| CD99P1 | 1 | -0.826 | -2.84 | inactive |
| CD99P1 | 2 | 0.164 | 4.12 | inactive |
| CD99P1 | 3 | 0.185 | 4.27 | inactive |
| GSTM1 | 1 | -0.793 | -2.61 | inactive |
| GSTM1 | 2 | 0.8 | 8.59 | inactive |
| GSTM1 | 3 | 2.5 | 20.6 | inactive |
| CRTC3 | 1 | 0.0632 | 3.41 | inactive |
| CRTC3 | 2 | -0.861 | -3.09 | inactive |
| CRTC3 | 3 | 0.376 | 5.62 | inactive |
| L3HYPDH | 1 | 0.31 | 5.15 | inactive |
| L3HYPDH | 2 | 0.896 | 9.27 | inactive |
| L3HYPDH | 3 | -0.277 | 1.02 | inactive |
| DNAI2 | 1 | -0.671 | -1.76 | inactive |
| DNAI2 | 2 | 0.731 | 8.11 | inactive |
| DNAI2 | 3 | 0.957 | 9.7 | inactive |
| STEAP1B | 1 | 0.485 | 6.38 | inactive |
| STEAP1B | 2 | 0.999 | 9.99 | inactive |
| STEAP1B | 3 | 0.167 | 4.14 | inactive |
| SRSF11 | 1 | -0.709 | -2.02 | inactive |
| SRSF11 | 2 | -0.532 | -0.779 | inactive |
| SRSF11 | 3 | -1.05 | -4.45 | inactive |
| OR52R1 | 1 | -0.789 | -2.58 | inactive |
| OR52R1 | 2 | 0.343 | 5.38 | inactive |
| OR52R1 | 3 | 2.21 | 18.5 | inactive |
| ELK3 | 1 | -0.824 | -2.83 | inactive |
| ELK3 | 2 | -0.836 | -2.91 | inactive |
| ELK3 | 3 | 2.63 | 21.5 | inactive |

3 entries from above, reformatted.
gene knocked down | siRNA no. | G2 robust z-score | G2 cells, % of GMNN control | outcome
AAAS | 1 | -0.928 | -3.57 | inactive
AAAS | 2 | 0.904 | 9.33 | inactive
AAAS | 3 | -0.056 | 2.57 | inactive
